{"sequences": {"note": "By UniProt entry, the sequences of proteins in these tests, tags left out.", "UniProt Q03018, whole entry": "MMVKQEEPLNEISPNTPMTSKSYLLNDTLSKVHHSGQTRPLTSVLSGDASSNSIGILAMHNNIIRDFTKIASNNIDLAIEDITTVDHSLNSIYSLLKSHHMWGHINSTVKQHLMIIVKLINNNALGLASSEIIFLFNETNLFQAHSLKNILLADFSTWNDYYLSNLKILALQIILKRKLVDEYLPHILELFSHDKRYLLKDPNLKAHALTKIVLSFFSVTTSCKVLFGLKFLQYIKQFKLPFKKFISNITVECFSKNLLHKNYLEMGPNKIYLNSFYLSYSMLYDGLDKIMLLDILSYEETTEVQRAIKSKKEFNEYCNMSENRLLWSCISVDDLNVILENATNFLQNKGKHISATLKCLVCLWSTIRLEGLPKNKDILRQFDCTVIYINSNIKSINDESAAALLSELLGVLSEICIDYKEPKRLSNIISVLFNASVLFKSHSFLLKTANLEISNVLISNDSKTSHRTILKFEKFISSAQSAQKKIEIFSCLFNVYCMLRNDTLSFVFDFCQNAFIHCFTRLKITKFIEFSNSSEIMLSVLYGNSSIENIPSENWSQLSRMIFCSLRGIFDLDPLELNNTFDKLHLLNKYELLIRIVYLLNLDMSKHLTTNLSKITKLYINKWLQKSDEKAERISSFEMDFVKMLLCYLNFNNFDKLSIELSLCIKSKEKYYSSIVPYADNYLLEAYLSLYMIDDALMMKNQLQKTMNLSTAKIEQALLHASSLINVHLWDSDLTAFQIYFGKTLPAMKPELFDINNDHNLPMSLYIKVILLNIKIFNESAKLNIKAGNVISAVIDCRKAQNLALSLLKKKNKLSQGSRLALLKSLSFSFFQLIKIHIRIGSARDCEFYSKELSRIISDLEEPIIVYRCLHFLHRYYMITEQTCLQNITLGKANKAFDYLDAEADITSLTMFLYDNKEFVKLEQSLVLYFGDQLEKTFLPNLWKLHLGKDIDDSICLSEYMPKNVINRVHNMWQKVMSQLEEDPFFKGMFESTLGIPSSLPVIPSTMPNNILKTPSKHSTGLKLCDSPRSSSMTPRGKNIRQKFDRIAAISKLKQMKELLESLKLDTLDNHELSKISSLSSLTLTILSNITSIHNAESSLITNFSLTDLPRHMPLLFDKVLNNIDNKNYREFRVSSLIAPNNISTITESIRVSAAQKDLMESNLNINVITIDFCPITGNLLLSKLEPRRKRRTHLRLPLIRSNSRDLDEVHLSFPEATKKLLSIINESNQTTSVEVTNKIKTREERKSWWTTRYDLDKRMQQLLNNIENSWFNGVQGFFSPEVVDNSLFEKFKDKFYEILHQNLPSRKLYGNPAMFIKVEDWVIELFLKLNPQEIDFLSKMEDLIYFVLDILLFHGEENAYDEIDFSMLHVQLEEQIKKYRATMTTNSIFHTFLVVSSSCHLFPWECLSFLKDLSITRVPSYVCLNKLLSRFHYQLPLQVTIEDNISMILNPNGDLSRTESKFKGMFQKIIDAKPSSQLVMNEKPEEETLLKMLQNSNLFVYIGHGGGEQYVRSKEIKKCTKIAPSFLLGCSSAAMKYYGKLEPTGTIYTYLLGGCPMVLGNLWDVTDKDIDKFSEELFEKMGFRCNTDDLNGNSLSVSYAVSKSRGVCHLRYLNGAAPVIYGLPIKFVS"}, "source": "paper doi:10.1101/648386", "biological_target": "Esp1-9MYC (S. cerevisiae) (UniProt Q03018)", "assay": "co-IP", "note": "Results are given in words; binding and its absence hold for the method and conditions named. In cells and extracts the contact can be indirect. Some results given as binding are weak or reduced against the parent protein; the word gives no strength."}
{"binder": "Pds1-6HA (protein, UniProt P40316 1-373) MMPANEDKENNIVYTGNESSGINFPQTPAHLLKRSHSNILKPPVRLDQLKRDANSNNGNTLKYIQGGKEVSPTKRLHTHAQQQGRLPLAAKDNNRSKSFIFPETSNQSKDADLPQLQNTLSIRKNDQLRKLSQISRSRSRANHNDLLSNSRKLQKYGSVLGYNALPKMKSLVLKDLADSGKNEESSDDDEGNEDSESKLGKKLQSALLKQDSSDGENELNGGLGLFNEQGGLQQLIKNSTKNEQKTKNDKSDKTDDYDIEIAPQRQEPLPYVPEGYSPFQQDDIEKLKTFNSPYKLDLEDEDDTPDKVDLLPLEQIDEEGEKDETECITRNQEEGAALPLLSKNFKEVAAVPTMELVYSEEGLDPEELEDLVT", "values": [{"measurement": "binding", "value": "binds"}]}
